Results reported in patent US9206226B2, “Non-ionic acid-labile surfactants and methods of use” (Protea Biosciences, Inc., priority 2011, dated 2015).

Test system: myoglobin
Experiment: MALDI-TOF mass spectra of myoglobin with surfactant, intact and acid-degraded
Settings: for myoglobin MALDI signal after surfactant degradation: degraded about 30 minutes in 1% TFA at pH 2.5
Source text: The various embodiments of non-ionic acid-labile surfactants and methods of use described herein may be better understood when read in conjunction with the following representative examples. The following examples are included for purposes of illustration and not limitation. MALDI-TOF spectra were acquired using an ABI 4800 mass spectrometer in the linear mode.
Referring to FIGS. 1A-C, 0.1% N-[2,2-Bis(pentyloxy)propan-1-aminocarbonyl]-β-maltosylamine was mixed with myoglobin in water. The samples were spotted onto a MALDI pre-spotted target with α-cyano-4-hydroxycinnamic acid (CHCA) MALDI matrix using C8 reversed phase tips. FIG. 1A includes a mass spectra of 20 pmol myoglobin in water. Myoglobin was detected at m/z 8488 and m/z 16979. FIG. 1B includes a mass spectra of 20 pmol myoglobin dissolved in 0.1% N-[2,2-Bis(pentyloxy)propan-1-aminocarbonyl]-β-maltosylamine. […] FIG. 1C includes a mass spectra of 20 pmol myoglobin dissolved in 0.1% N-[2,2-Bis(pentyloxy)propan-1-aminocarbonyl]-β-maltosylamine after being degraded for about thirty (30) minutes in 1% trifluoroacetic acid (TFA) at pH 2.5. Myoglobin was detected at m/z 8482 and m/z 16967.
Referring to FIGS. 4A-C 1% N-[2,2-Bis(hexyloxy)propan-1-aminocarbonyl]-β-maltosylamine was mixed with myoglobin. The samples were spotted onto a MALDI pre-spotted target with α-cyano-4-hydroxycinnamic acid (CHCA) MALDI matrix using C8 reversed phase tips. FIG. 5A includes a mass spectra of 20 pmol myoglobin in water. Myoglobin was detected at m/z 8488 and m/z 16979. FIG. 4B includes a mass spectra of 20 pmol myoglobin dissolved in 1% N-[2,2-Bis(hexyloxy)propan-1-aminocarbonyl]-β-maltosylamine. […] FIG. 5C includes a mass spectra of 20 pmol myoglobin dissolved in 1% N-[2,2-Bis(hexyloxy)propan-1-aminocarbonyl]-β-maltosylamine after being degraded for about thirty (30) minutes in 1% trifluoroacetic acid (TFA) at pH 2.5. Myoglobin was detected at m/z 8492 and m/z 16986.

SMILES	myoglobin MALDI signal, intact surfactant (20 pmol myoglobin dissolved in 1% surfactant)	myoglobin MALDI signal after surfactant degradation (1% surfactant)	myoglobin MALDI signal, intact surfactant (20 pmol myoglobin dissolved in 0.1% surfactant)	myoglobin MALDI signal after surfactant degradation (0.1% surfactant)
CCCCCCOC(C)(CNC(=O)NC1OC(CO)C(OC2OC(CO)C(O)C(O)C2O)C(O)C1O)OCCCCCC (stereo not drawn) [N-[2,2-Bis(hexyloxy)propan-1-aminocarbonyl]-β-maltosylamine]	no signal from the myoglobin was detected	a signal from the myoglobin was detected when the surfactant was degraded	–	–
CCCCCOC(C)(CNC(=O)NC1OC(CO)C(OC2OC(CO)C(O)C(O)C2O)C(O)C1O)OCCCCC (stereo not drawn) [N-[2,2-Bis(pentyloxy)propan-1-aminocarbonyl]-β-maltosylamine]	–	–	no signal from the myoglobin was detected	a signal from the myoglobin was detected when the surfactant was degraded
